Experimental data from publication PMC12283378.

How the values were obtained:
[1] = target: T1, 3xFLAG-LHA1-R (regulatory domain of the plasma membrane H+-ATPase LHA1) (tomato (Solanum lycopersicum)) (UniProt P22180); test: co-IP; 3xFLAG-tagged R domain precipitated with anti-FLAG M2 affinity gel from N. benthamiana leaf extract (150 mM NaCl, 50 mM Tris-HCl pH 7.5, 10% glycerol, 0.5% IGEPAL; 4 °C, 3 h), PLL2-sfGFP detected with anti-GFP; no systemin treatment
T1 sequence: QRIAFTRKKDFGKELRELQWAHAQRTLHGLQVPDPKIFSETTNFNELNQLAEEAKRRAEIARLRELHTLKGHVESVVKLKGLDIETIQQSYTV

[2] = target: T2, SlLHA1-nYFP (tomato (Solanum lycopersicum)) (UniProt P22180); test: split reporter; BiFC: LHA1 or LHA4 fused with nYFP and SlPLL2 with cYFP, transiently expressed in N. benthamiana leaves; confocal microscopy
T2 sequence: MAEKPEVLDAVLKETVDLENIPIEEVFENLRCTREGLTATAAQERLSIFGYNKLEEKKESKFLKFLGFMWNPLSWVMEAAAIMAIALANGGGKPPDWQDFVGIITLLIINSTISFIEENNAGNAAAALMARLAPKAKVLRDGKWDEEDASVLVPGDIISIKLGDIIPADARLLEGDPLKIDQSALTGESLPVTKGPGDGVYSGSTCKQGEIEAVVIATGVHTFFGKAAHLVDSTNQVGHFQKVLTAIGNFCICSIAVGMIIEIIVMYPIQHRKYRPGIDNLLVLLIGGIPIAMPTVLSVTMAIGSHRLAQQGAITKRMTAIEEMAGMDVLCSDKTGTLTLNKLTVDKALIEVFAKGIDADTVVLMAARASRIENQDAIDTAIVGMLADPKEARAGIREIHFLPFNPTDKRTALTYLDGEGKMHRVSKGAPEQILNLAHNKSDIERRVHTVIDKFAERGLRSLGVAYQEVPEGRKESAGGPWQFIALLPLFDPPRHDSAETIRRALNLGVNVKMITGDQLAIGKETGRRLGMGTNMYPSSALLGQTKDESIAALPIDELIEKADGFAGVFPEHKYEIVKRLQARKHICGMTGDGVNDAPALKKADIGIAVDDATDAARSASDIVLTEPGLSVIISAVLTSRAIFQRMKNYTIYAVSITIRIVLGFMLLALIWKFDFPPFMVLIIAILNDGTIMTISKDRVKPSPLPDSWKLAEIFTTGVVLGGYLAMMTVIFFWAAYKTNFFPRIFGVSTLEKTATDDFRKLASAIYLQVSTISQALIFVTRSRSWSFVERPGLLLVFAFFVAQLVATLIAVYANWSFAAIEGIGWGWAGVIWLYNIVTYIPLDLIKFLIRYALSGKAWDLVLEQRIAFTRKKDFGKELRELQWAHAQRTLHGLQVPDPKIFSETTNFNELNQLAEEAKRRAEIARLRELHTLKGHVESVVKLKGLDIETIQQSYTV

Substance: SlPLL2^3D-sfGFP (phospho-mimetic variant, GFP fusion) (tomato (Solanum lycopersicum)) (enzyme)
- binding [1]: no binding

Substance: SlPLL2^3A-sfGFP (phospho-dead variant, GFP fusion) (tomato (Solanum lycopersicum)) (enzyme)
- binding [1]: binds

Substance: SlPLL2-cYFP (tomato (Solanum lycopersicum)) (enzyme)
- binding [2]: binds

These are yes or no findings as the source states them, for the method shown. Binding seen in cells or lysates may run through a third protein. A result given as binding can be weak or reduced; the word gives no strength. Where a sequence is shown, tags or fusion partners need not be part of it.
